PubChem BioAssay AID1259405 – NCATS – 2018
Test: 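Mouse-designed siRNAs used to find CHO productivity engineering targets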 (primary screen). Cell system: Chinese hamster CHO-K1 ovary cells with stable secreted eGFP expression. Reagent: single siRNA against mouse genes, 0.8 pmol siRNA per well (2 µl of 400 nM stock). Time to read-out: 3 days. Measured: 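Per-well intracellular GFP measured by laser scanning cytometry, plus viability from ATP luminescence, each relative to plate median of non-targeting control wells, in %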. Reading the numbers: GFP, % of control: higher = more GFP per well, higher productivity. Hit rule: 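a knock-down is called active if GFP reaches 120% or more of non-targeting control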.
Shown is one part, drawn at random, of about 50,000 reagents. Of all reagents, about 4,000 (8%) were called active. 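Mouse siRNA library applied to hamster cells; one well for each siRNA.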 Unmarked entries are inactive. Not all columns of the deposit are shown. No sequences are given here.

GFP, % of control, by target and reagent
Or7g19 (GeneID 258075): SID363554515 84.1; SID363567962 82.6; SID363586021 102
B130024G19Rik (GeneID 434198): SID363540386 32.1; SID363542138 56.1; SID363567054 18.3
Nol7 (GeneID 70078): SID363562265 95.1; SID363567403 92.2; SID363584760 83.1
Fbln5 (GeneID 23876): SID363582601 104; SID363584361 97.3
Slx4 (GeneID 52864): SID363546846 53.4; SID363549658 67.6; SID363587712 166 (active)
Ehbp1 (GeneID 216565): SID363540022 78.3; SID363561323 60.2; SID363564359 75.2
Slc1a3 (GeneID 20512): SID363574721 78.2; SID363575777 84; SID363580353 82.5
Acp2 (GeneID 11432): SID363575281 70.4; SID363580913 54.8; SID363583025 66.7
Rora (GeneID 19883): SID363544967 70.1; SID363551295 74.6; SID363557844 49.7
Maf (GeneID 17132): SID363555466 98.9; SID363564127 50.9; SID363587673 104
Usp28 (GeneID 235323): SID363574277 77.3; SID363575333 51.5; SID363579909 62.5

4 entries from above, set out differently.
target | PubChem SID | GFP, % of control
Acp2 (GeneID 11432) | SID363580913 | 54.8
Acp2 (GeneID 11432) | SID363583025 | 66.7
Rora (GeneID 19883) | SID363544967 | 70.1
Rora (GeneID 19883) | SID363551295 | 74.6

The list goes on:
GFP, % of control, by target and reagent
Cdc16 (GeneID 69957): SID363550219 69.1; SID363564728 72.1; SID363588273 71.5
Trpv6 (GeneID 64177): SID363574808 257 (active); SID363575864 83.8; SID363580440 97.8; SID363589776 82.3; SID363589777 144 (active); SID363589778 68.7
Kcnh6 (GeneID 192775): SID363574841 94.1; SID363575897 45.6; SID363580473 99.5
Ap1m1 (GeneID 11767): SID363582585 95; SID363584345 64
Acp7 (GeneID 101744): SID363547570 28.7; SID363558339 24.1; SID363560097 57.4
Opalin (GeneID 226115): SID363556334 94.6; SID363586784 91.6; SID363588892 1.3
Zfp661 (GeneID 72180): SID363555204 58.4; SID363563865 105; SID363587411 65.1
C87436 (GeneID 232196): SID363550132 96.1; SID363564641 75.2; SID363588186 119
